The assay is described as follows: qHTS Assay for Lipid Storage Modulators in Drosophila S3 Cells.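 As to cell number change: cells counted by Cell Tracker Red CMTPX staining in the red channel.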 To be noted: BODIPY lipid droplet fluorescence, 18-24 h; for cell number change: measured here: cell count max response, cells fed with added oleic acid. The gist of the method: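 Laser-scanning cytometry quantifies lipid droplet accumulation (500–530 nm total intensity; droplet/cell object ratio) in oleic acid-fed (400 uM added) Drosophila S3 cells treated with a concentration series. 20 uM Triacsin C defined 100% inhibition.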
(In general: qHTS replaces the single test concentration by a dilution series.)

[1] abbreviates: measured here: cell number channel AC50, cells fed with added oleic acid.
[2] abbreviates: measured here: lipid fluorescence (Fed channel) AC50, cells fed with added oleic acid.

For 63 compounds, cell number change and AC50 results are on record in PubChem BioAssay AID2685 (National Center for Advancing Translational Sciences (NCATS), 2010).

Some of the results follow. Shown are side measurements of this screen, not its main read-out; they come without a call. The list favours compounds with an active or inconclusive main result. The note in brackets gives the kind of curve behind each potency; many fits are weak.

For the compound `CCOC(=O)c1nn(-c2ccccc2C)c(=O)cc1OCC(=O)Nc1cccc(OC)c1`, the cell number change is -21.5%.
For `Cc1ccc(CNCCC2=CCCCC2)cc1`, the cell number change was -50.8%. The AC50 (usually the concentration giving half of the maximal activity seen) under setting [1] is 8.2 µM [falling, partial curve]. Further, under setting [2], the AC50 was 29.1 µM [falling, single point].
In the case of `CCC1(C)Cc2ccccc2-c2nc3n(c(=O)c21)CC(C(=O)O)S3` (stereo not drawn), the cell number change turned out to be 5.87%.
With `CC1=C(C)C(c2ccccc2)NC(=S)N1` (stereo not drawn), the cell number change is -33.1%. Further, under setting [1], the concentration at half-maximal activity (AC50) is 10.3 µM [falling, partial curve, poor fit]. Moreover, the AC50 under setting [2] is 1.84 µM [falling, full curve, poor fit].
As to `CC(C(=O)Nc1nnc(C2CC2)s1)N1C(=O)C2CC=CCC2C1=O` (stereo not drawn), the cell number change was -6.01%. Further, the concentration at half-maximal activity (AC50) under setting [2] is 29.1 µM [rising, single point].
On to `Cc1ccc(C(=O)N2CCN(S(C)(=O)=O)C2)cc1`, for which the cell number change amounted to 6.97%. For the same compound, under setting [2], the AC50 is 6.51 µM [falling, single point].
As for `CCc1ccc(NC(=O)CCS(=O)(=O)c2cccc3nsnc23)cc1`, the cell number change came out at 36.3%. For the same compound, under setting [1], the AC50 is 1.46 µM [rising, full curve, poor fit].
For the compound `O=S(=O)(NC1=NCCCCC1)c1ccc(Cl)cc1Cl`, the cell number change was determined as 28.1%. Further, the half-maximal activity concentration (AC50) under setting [2] is 0.146 µM [falling, full curve, poor fit].
For `Cc1ccc(C(=O)CCC(=O)OCC(=O)Nc2c(C)nn(-c3ccccc3)c2C)cc1`, the cell number change is -33%. Also, the concentration at half-maximal activity (AC50) under setting [1] is 32.6 µM [falling, single point].
In the case of `O=C(O)C1=C[C@@H](c2ccc3c(c2)OCO3)C[C@@H](OCc2ccc(CO)cc2)O1`, the cell number change is 15.2%. The concentration at half-maximal activity (AC50) under setting [2] was 18.4 µM [rising, single point].
Consider `COc1cccc(N2CCN(C3C4CC5CC(C4)CC3C5)CC2)c1` (stereo not drawn), for which the cell number change is -13.9%.
With `Cc1ccc(SC(=O)c2c([N+](=O)[O-])c(C)nn2C)cc1`, the cell number change was -40.2%. Moreover, under setting [1], the concentration at half-maximal activity (AC50) was 29.1 µM [falling, single point]. Moreover, under setting [2], the half-maximal activity concentration (AC50) is 29.1 µM [falling, single point].
Regarding `Cc1ccccc1CSCC(=O)N/N=C/c1cccs1`, the cell number change was -16.7%. The AC50 under setting [1] is 0.0231 µM [falling, full curve, poor fit].
In the case of `COc1cc(/C=N/NC(=O)c2ccncc2)cc2c1OCO2`, the cell number change is -8.51%.
`CC(C)[C@H](NC(=O)c1ccccc1F)C(=O)Nc1nc2c(s1)CCCC2`: the cell number change is -21%. Further, under setting [2], the half-maximal activity concentration (AC50) is 9.2 µM [rising, partial curve].
For `O=C(Nc1ccc(Cl)cn1)c1cnn2cccnc12`, the cell number change worked out at 68.7%. The concentration at half-maximal activity (AC50) under setting [1] was 0.82 µM [rising, full curve, poor fit]. Under setting [2], the half-maximal activity concentration (AC50) is 1.64 µM [rising, partial curve].
Consider `COc1cccc(N2CCN(C(=O)c3ccc(CS(=O)c4ccc(C)cc4)o3)CC2)c1` (stereo not drawn), for which, under setting [2], the AC50 is 29.1 µM [falling, single point].
In the case of `O=C(CCSc1ccc(Cl)c(Cl)c1)NC12CC3CC(CC(C3)C1)C2`, the cell number change was determined as 1.44%. Besides, the concentration at half-maximal activity (AC50) under setting [2] was 29.1 µM [falling, single point].
Turning to `COc1cccc(OCc2nnc(SCC(=O)N3c4ccccc4Sc4ccc(Cl)cc43)o2)c1`, the cell number change came to 4.11%.
As to `COc1ccc(-c2c(C)nn3c(N)c(-c4ccccc4)cnc23)cc1OC`, the cell number change is -41.9%. For the same compound, under setting [1], the concentration at half-maximal activity (AC50) is 20.6 µM [falling, single point].
As for `COc1ccc(C2CC(=O)C(C=NCCN3CCOCC3)=C(O)C2)cc1` (stereo not drawn), the cell number change was -10.7%.
As for `COc1ccccc1N1CN(CCc2ccccc2)CNC1=S`, the cell number change stood at 5.15%. Moreover, the AC50 under setting [2] was 29.1 µM [rising, single point].
On to `CCn1c(C)c(C(C)=O)c(N2CCC(C(N)=O)CC2)nc1=S`, for which the cell number change is -5.04%.
As to `CCN(CC)CCCN1C(=O)c2oc3ccccc3c(=O)c2C1c1cccc(OC)c1OC` (stereo not drawn), the cell number change stood at 10.5%. Further, the AC50 under setting [2] was 29.1 µM [falling, single point].
Consider `CCn1cc(C(=O)NCc2ccc(C)cc2)c(=O)c2cc(S(=O)(=O)N(C)C)ccc21`, for which the cell number change was -44.1%. For the same compound, under setting [1], the half-maximal activity concentration (AC50) is 18.4 µM [falling, single point]. For the same compound, the half-maximal activity concentration (AC50) under setting [2] was 14.6 µM [falling, partial curve].
For the compound `CCn1nnnc1-c1ccc(OC)c(S(=O)(=O)N2CCCCC2)c1`, under setting [2], the AC50 is 8.2 µM [rising, partial curve].
For `NS(=O)(=O)c1ccc(NC(=S)N2CCN(c3ccc(Cl)c(Cl)c3)CC2)cc1`, the cell number change was -34.1%. The half-maximal activity concentration (AC50) under setting [1] was 29.1 µM [falling, single point].
In the case of `CC(C)n1c(SCC(=O)NC2CCCCC2)nnc1-c1ccco1`, the cell number change is -3.42%.
As to `Brc1ccc(OCCCCN2CCCCC2)cc1`, the cell number change amounted to 12.3%. Moreover, under setting [2], the AC50 was 6.51 µM [falling, single point].
For the compound `CCn1c(SCC(=O)Nc2cccc(C)n2)nnc1-c1ccco1`, the cell number change amounted to 7.79%. Moreover, the half-maximal activity concentration (AC50) under setting [1] was 2.31 µM [rising, partial curve]. The AC50 under setting [2] is 2.31 µM [rising, partial curve].
As to `COc1ccccc1-n1c(CNC(=O)c2ccc(S(=O)(=O)N3CCCCC3)cc2)n[nH]c1=S`, the cell number change was -23.2%. In addition, the AC50 under setting [2] was 29.1 µM [falling, single point].
`Cc1nn(C)c(C)c1S(=O)(=O)N1CCC(C(=O)NC2CCCc3ccccc32)CC1` (stereo not drawn): the cell number change was 6.44%. The half-maximal activity concentration (AC50) under setting [2] was 0.103 µM [falling, full curve, poor fit].
On to `O=C(COC(=O)C1CCC(=O)N1)Nc1ccccc1Br` (stereo not drawn), for which the cell number change was -9.52%. Further, the concentration at half-maximal activity (AC50) under setting [1] was 0.461 µM [rising, full curve, poor fit].
Take `Cc1ccc(-c2cc(C(=O)N/N=C/c3c(C)nn(-c4ccccc4)c3C)[nH]n2)cc1`: the cell number change is 43.7%. Moreover, the AC50 under setting [1] was 16.4 µM [rising, single point]. Also, the half-maximal activity concentration (AC50) under setting [2] is 18.4 µM [rising, single point].
Turning to `Cc1ccccc1NC(=O)CN1C(=O)N/C(=C\c2ccccc2OCc2ccc(C(=O)O)cc2)C1=O`, the cell number change turned out to be 18.1%. The half-maximal activity concentration (AC50) under setting [2] was 29.1 µM [rising, single point].
For `CCc1c(C)nc2ncnn2c1N1CCC(C(=O)N2CCN(c3ccc(F)cc3)CC2)CC1`, the cell number change is -18%. The AC50 under setting [2] was 0.731 µM [rising, single point].
Turning to `Cn1nc([N+](=O)[O-])nc1Sc1ccc(C(C)(C)C)cc1`, the cell number change is -26.3%.
As for `CC(C)(C)CC(=O)N1CCN(Cc2ccc3c(c2)OCO3)CC1`, the cell number change came to 8.45%.
Still for that read-out and setting: the same measure for `CC(=O)c1ccc(NC(=O)CN2CCN(CC(=O)Nc3ccc(C(C)=O)cc3)CC2)cc1`: -20.8%.
With `O=[N+]([O-])c1cccc(-c2nc(Oc3ccc(Cl)cc3)c3ccccc3n2)c1`, the cell number change is 118%. Further, under setting [1], the half-maximal activity concentration (AC50) was 3.66 µM [rising, full curve]. Also, the concentration at half-maximal activity (AC50) under setting [2] was 6.51 µM [rising, single point].
Take `O=C(NCCc1ccccn1)c1nc(Cn2cc(Br)cn2)no1`: the cell number change amounted to 25.7%.
Turning to `O=C(NNC(=O)c1ccccc1F)C1=NN(c2ccccc2)C(=O)CC1`, the cell number change amounted to 3.33%.
`C=CCOc1cccc(/C=N/NC(=O)CC(=O)NC2CCCCC2)c1`: the cell number change was -2.64%. In addition, under setting [2], the AC50 is 3.66 µM [rising, partial curve, poor fit].
As for `CSc1nc(-c2ccccc2)c(C#N)c(=O)n1C`, the cell number change worked out at 20.2%. Also, the half-maximal activity concentration (AC50) under setting [2] was 9.2 µM [rising, partial curve, poor fit].
Turning to `Cc1nn(-c2ccccc2)c(Cl)c1/C=C/C(=O)c1ccccc1`, the cell number change was -9.59%. In addition, under setting [1], the concentration at half-maximal activity (AC50) was 0.00461 µM [falling, full curve, poor fit]. Further, the half-maximal activity concentration (AC50) under setting [2] was 29.1 µM [rising, single point].
Turning to `Cc1c(C)[n+](=O)c(-c2ccc(F)cc2)c(C)n1[O-]`, the cell number change was -18%. Also, the AC50 under setting [2] was 0.058 µM [falling, full curve].
Take `CC(OC(=O)CCC(=O)c1cccs1)C(=O)Nc1ccc(Cl)cn1` (stereo not drawn): the cell number change is -4.06%.
As for `CNC(=O)c1ccc(NC(=O)C2CCN(S(=O)(=O)c3cccc(C(F)(F)F)c3)CC2)cc1`, the cell number change is -2.54%. Besides, under setting [2], the half-maximal activity concentration (AC50) is 0.184 µM [rising, full curve, poor fit].
On to `Cc1ccc(Cn2c(SC3CCOC3=O)nc3ccccc3c2=O)cc1` (stereo not drawn), for which the cell number change turned out to be 107%. For the same compound, under setting [1], the AC50 is 29.1 µM [rising, single point].
Regarding `COc1ccc(CCNC(=O)C23CCC(C)(C(=O)C2=O)C3(C)C)cc1OC` (stereo not drawn), the cell number change stood at 128%.
For the compound `COc1ccc(-n2c(O)c(/C=N/NS(=O)(=O)c3cc(C)ccc3C)c3ccccc3c2=O)cc1OC`, the cell number change is -99.5%. Besides, the AC50 under setting [1] was 2.31 µM [rising, partial curve, poor fit]. Moreover, the half-maximal activity concentration (AC50) under setting [2] is 3.66 µM [falling, partial curve].
Regarding `Cc1cc(C)cc(-n2ncc3c2CCCC3NC(=O)c2cc(C)[nH]n2)c1` (stereo not drawn), the cell number change was -43.7%. Besides, the AC50 under setting [1] is 7.31 µM [falling, partial curve].
Regarding `Cc1ccc(NC(=O)NC(=O)CSc2n[nH]c(N)n2)c(C)c1`, the cell number change turned out to be 12.3%. Also, under setting [1], the AC50 was 6.51 µM [falling, single point].
In the case of `S=C(NCc1ccccc1)NCc1ccccn1`, the cell number change was determined as 31.8%. The AC50 under setting [1] is 16.4 µM [rising, single point].
`Cn1ncc([N+](=O)[O-])c1C(=O)NCc1ccccc1`: the cell number change worked out at 28.4%. The AC50 under setting [2] was 2.06 µM [rising, partial curve].
For `CN(C)S(=O)(=O)c1cccc(N=c2scc(-c3ccc4c(c3)NC(=O)CO4)n2CC2CCCO2)c1` (stereo not drawn), the cell number change was -3.02%. In addition, the AC50 under setting [2] was 29.1 µM [rising, single point].
For `O=[N+]([O-])c1cc(S(=O)(=O)N2CCCC2)ccc1NCCc1ccccc1`, the cell number change is 0.392%.
Turning to `O=C1COc2ccc(S(=O)(=O)N3CCN(c4cccc(C(F)(F)F)c4)CC3)cc2N1`, the cell number change is -7.96%.
On to `Cc1ccc(OCC(=O)Oc2cccc(C)c2C)cc1`, for which the cell number change was 18.6%. Also, the AC50 under setting [2] is 0.116 µM [falling, full curve, poor fit].
With `CC(NCc1ccccc1)C1COc2ccccc2O1` (stereo not drawn), the cell number change stood at 11.9%. For the same compound, under setting [2], the AC50 was 0.184 µM [falling, full curve].
Regarding `CN1c2ccsc2/C(=N/Nc2ccc(F)cc2)CS1(=O)=O`, the cell number change was determined as 12.9%.
With `COc1ccccc1OCC(=O)Nc1ccc(N2CCCCC2)cc1`, the cell number change turned out to be 67.2%. Also, the AC50 under setting [1] is 3.66 µM [rising, full curve]. The half-maximal activity concentration (AC50) under setting [2] was 11.6 µM [rising, partial curve].
Turning to `C(=C\c1ccco1)/C1=NN(c2ccccc2)C(c2ccco2)C1` (stereo not drawn), the cell number change is -47.2%. Also, the AC50 under setting [1] is 18.4 µM [falling, partial curve, poor fit]. Moreover, under setting [2], the half-maximal activity concentration (AC50) was 14.6 µM [falling, partial curve, poor fit].
